The subject of assay [1] is Rat2 fibroblasts stably transformed with a plasmid containing a CMV promotor controlled v-Src/Hu c-Src fusion gene. The settings on record: read-out: anch-indep src-tx fib IC50; suspension growth, MTS on Day 5.
Assay [2] relates to human adenocarcinoma cell line CaCo-2. The assay can be described thus: Cell Based Screen for Inhibitors of Raf Kinase, CaCo-2 cells. The settings on record: read-out: CaCo-2 IC50; CaCo-2, four days, SRB.

Certain results were filed several times, with different values. They are shown here; other results are not. An entry can have further records. The records of an entry differ, and nothing given here explains why; dose, time, organism, isomer or construct need not be as stated for each record.

On to `COc1cc(Nc2c(C#N)cnc3cc(/C=C/c4ccncc4)ccc23)c(Cl)cc1Cl`, for which the 50% inhibitory concentration (IC50) in assay [1] is given as 270 nM, 190 nM, 130 nM.
On to `Cn1ccnc1Sc1ccc(Nc2c(C#N)cnc3cc(-c4csc(CN5CCOCC5)c4)ccc23)cc1Cl` [Example 33, 4-{3-Chloro-4-[(1-methyl-1H-imidazol-2-yl)sulfanyl]anilino}-7-[5-(4-morpholinylmethyl)-3-thienyl]-3-quinolinecarbonitrite], for which the IC50 in assay [2] was 1.9 µM and 780 nM.

The values above are taken from EP1268431B1 (Wyeth, priority 2000, dated 2001).
